# Laboratory results as given in PubChem BioAssay AID602296 (Broad Institute, 2012).
# The campaign covered roughly 2,000 compounds. About 190 (9.5%) were called active. Inconclusive results (about 14%) are left out.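 Rule for the calls: active = fitted activation curve crossing 40% at a concentration no higher than the sample's top valid tested dose; inconclusive = flat fitted curve at 30% to 70% activation, or poor curve fit; inactive = signal decrease, flat curve within 30%, or the rest.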 The list lacks most of the strong results.
# Assay: sustained heat shock response element induction – cell-based, mouse, luciferase, cherry-pick, dose, confirmation (AID 602296);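 note: test compounds applied by themselves with no MG132 co-treatment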
# Settings: NIH3T3-HGL HSF-1 response element luciferase, 48 h; at 26 µM (top of the series) unless noted
row,Structure (SMILES),activation
1,CS/C(Nc1cc(Cl)ccc1Cl)=C(/C#N)C(=O)c1ccco1,inactive: -49.6%
2,COC(=O)c1cn(NC(=O)C2CCC(C)CC2)c(=O)c2ccccc12 (stereo not drawn),inactive: -4.09%
3,Nc1nc(N)c(C=Nc2ccc(Br)cc2)c(Nc2ccc(Br)cc2)n1,inactive: -45.5%
4,CCc1nn(C(C)C(=O)NC(C)CCc2ccco2)c(=O)c2cc3occc3n12 (stereo not drawn),inactive: -7.46%
5,O=C(NCCn1cccn1)C1CCC(=O)N(CCc2cccc(F)c2)C1 (stereo not drawn),inactive: 2.1%
6,COC(=O)c1ccc(CSc2nnnn2-c2ccc(C)cc2C)o1,inactive: -6.78%
7,CCC(=O)Nc1c(S(=O)(=O)c2ccccc2)c2nc3ccccc3nc2n1C(C)c1ccccc1 (stereo not drawn),inactive: -20.5%
8,CC(=O)Nc1ccc(NC(=O)c2ccc(NS(=O)(=O)c3cc(C(C)(C)C)cc(C)c3C)cc2)cc1,inactive: -108%
9,COc1ccc(/C=N/n2cncn2)cc1COc1ccc(NC(C)=O)cc1,inactive: -15.9%
10,CCOC(=O)c1c(COc2ccccc2)oc2ccc(O)cc12,inactive: -12.8%
11,Cc1ccc(O)c(NC(=O)Cc2ccc3ccccc3c2)c1,inactive: 0.04%
12,O=C(C=C=Nc1ccccc1)C(=O)N=C=Cc1ccccc1,inactive: -110%
13,Cc1ccc(C(=O)NC2CCCN(c3ccc(C(F)(F)F)cn3)C2)cn1 (stereo not drawn),inactive: -1.39%
14,Cc1ccc(-c2nn[nH]n2)cc1,inactive: 12.1%
15,COc1ccc2[nH]c3c(C)c4ccncc4c(C)c3c2c1,inactive: -99.7%
16,Oc1[nH]c2ccccc2c1N=NC(=S)N1CCOCC1,inactive: -86.4%
17,O=C(CCl)c1ccc2c(c1)CCN2C(=O)C1CCCCC1,inactive: -12.1%
18,Cc1cc(C(=O)N/N=C/c2ccc([N+](=O)[O-])s2)c2ccccc2n1,inactive: -39.8%
19,O=C(CCn1c(=O)oc2ccccc21)Nc1ccccc1,inactive: 5.77%
20,COC(CNC(=O)C1CCCN(S(=O)(=O)c2c(C)noc2/C=C/c2cccs2)C1)OC (stereo not drawn),inactive: -8.13%
21,O=C(CC1SC(=NCCc2ccccc2)N(/N=C/c2cccs2)C1=O)Nc1ccc(Cl)cc1 (stereo not drawn),inactive: 14.8%
22,CCN(CC)c1ccc([N+](=O)[O-])cc1C(=O)N1CCOCC1,inactive: 1.22%

# Some of these compounds in order of molecular weight, largest number first:
row,Structure (SMILES),activation
3,Nc1nc(N)c(C=Nc2ccc(Br)cc2)c(Nc2ccc(Br)cc2)n1,inactive: -45.5%
13,Cc1ccc(C(=O)NC2CCCN(c3ccc(C(F)(F)F)cn3)C2)cn1 (stereo not drawn),inactive: -1.39%
10,CCOC(=O)c1c(COc2ccccc2)oc2ccc(O)cc12,inactive: -12.8%
17,O=C(CCl)c1ccc2c(c1)CCN2C(=O)C1CCCCC1,inactive: -12.1%
11,Cc1ccc(O)c(NC(=O)Cc2ccc3ccccc3c2)c1,inactive: 0.04%

# The list continues.

row,Structure (SMILES),activation
1,Cc1cccc(C(=O)NNC(=O)CCn2nnc3ccccc32)c1,inactive: 14.8%
2,O=C(O)c1cc(-c2ccc(Cl)c(Cl)c2)n(-c2ccccc2)n1,inactive: -5.53%
3,O=C(COC(=O)c1cn(-c2ccccc2)nc1-c1ccccc1)c1ccc([N+](=O)[O-])cc1,inactive: -19.1%
4,COc1cc(NC(=O)c2cc([N+](=O)[O-])ccc2NC(=O)CNC2CCCCC2C)cc(OC)c1 (stereo not drawn),inactive: -47.9%
5,CCOC(=O)C1C(=O)OC(C)(C)C1C(C)C(=O)c1ccc(C)cc1C (stereo not drawn),inactive: -4.34%
6,CC(Oc1ccc(Cl)cc1)C(=O)OCC(=O)Nc1ncc(Cl)cc1Cl (stereo not drawn),inactive: 0.542%
7,COC(=O)CNC(c1ccccc1)c1cc(Br)ccc1N (stereo not drawn),inactive: -2.2%
8,Cc1cc2nc3c(=O)n(CCc4ccccc4)c(=O)[nH]c3nc2cc1N,inactive: 6.23%
9,Cc1ccc(N(Cc2ccc(C(=O)Nc3ccccc3C(=O)NCc3ccco3)cc2)S(C)(=O)=O)cc1C,inactive: -8.84%
10,Cc1cccc(NC(=S)N=Nc2c(O)[nH]c3ccccc23)c1,inactive: -34%
11,O=C(COc1ccc(Cl)cc1)NCCCNC(=O)c1ccccn1,inactive: -9.69%
12,FC(F)(F)c1ccc(Sc2nnc(-c3cccs3)n2CC2CCCO2)nc1 (stereo not drawn),inactive: 5.38%
13,CCCn1nc([N+](=O)[O-])c(C(C#N)c2nc3ccccc3o2)c(Cl)c1=O (stereo not drawn),inactive: -72.7%
14,Cn1c(Sc2ccc(C(F)(F)F)cc2[N+](=O)[O-])nnc1-c1ccccc1,inactive: -17.7%
15,O=C(CCCN1C(=O)c2cccc3cccc(c23)C1=O)Nc1ccon1,inactive: 9.55%
16,O=C1C2CCCCN2C(=O)N1CCCN1CCN(c2ccc(F)cc2)CC1 (stereo not drawn),inactive: 2.81%
17,COc1ccc(C(=O)c2coc3ccc(O)c(CN(C)C)c23)cc1,inactive: 15.4%
18,COc1ccc(CN2CC(C(=O)NCCCN3CCOCC3)CC2=O)cc1 (stereo not drawn),inactive: 0.184%
19,CCCCn1c(SCC(=O)c2ccc(O)c(O)c2)nc2ccsc2c1=O,inactive: -75.2%
20,COc1ccc(CNC(=O)CN(Cc2ccccc2)C(=O)CCC(=O)Nc2nccs2)cc1,inactive: 5.51%
21,COc1ccc(/C=c2\s/c(=C\C(=O)C(C)(C)C)[nH]c2=O)cc1O,inactive: -30.3%
22,COc1ccc(C(=O)NC(=S)N2CCCCC2c2cccnc2)cc1OC (stereo not drawn),inactive: 7%

row,Structure (SMILES),activation
1,O=[N+]([O-])c1ccc(-c2nc(C(Cl)Cl)c3ccccc3n2)cc1,inactive: -99.1%
2,CC(C)c1ccc(N(C(=O)CNC(=O)c2ccco2)C(C(=O)NC2CCCC2)c2ccncc2)cc1 (stereo not drawn),inactive: 6.83%
3,COCc1cc(CN2CCCC(C(=O)Nc3ccc(-c4ccco4)cc3)C2)ccc1OC (stereo not drawn),inactive: 11.2%
4,CCn1c(-c2ccccc2)c(C(=O)CCl)c2ccccc21,inactive: -107%
5,CCOC(=O)c1sc(NC(=O)CCN2CCC(C)CC2)c(C(=O)OCC)c1C,inactive: 34.9%
6,CCC1CCC2(CC1)SCC(=O)N2c1ccccc1 (stereo not drawn),inactive: -4.25%
7,COc1ccc(C2Nc3ccccc3C(=O)N2Cc2ccco2)cc1COc1ccc(F)cc1 (stereo not drawn),inactive: -24%
8,O=C(COC(=O)/C=C/c1ccc(Br)o1)NCCCN1CCCC1=O,inactive: -9.42%
9,Cc1ccc(-c2ccc(=O)[nH]n2)cc1,inactive: 6.96%
10,CCCc1nc2ccc(NC(=O)c3cccs3)cc2c(=O)n1Cc1ccccc1Cl,inactive: -43.2%
11,CCOC(=O)C1CCCN(C(=O)c2ccc(Cl)c(S(=O)(=O)N3CCCCC3)c2)C1 (stereo not drawn),inactive: -9.23%
12,O=[N+]([O-])c1ccc(N2CCCCCC2)c([N+](=O)[O-])c1,inactive: -2.24%
13,O=C(CN(CC1CCCO1)S(=O)(=O)c1ccc(S(=O)(=O)NC2CC2)cc1)Nc1ccccc1 (stereo not drawn),inactive: -13.9%
14,O=c1c2sccc2nc(SCc2ccc([N+](=O)[O-])cc2)n1Cc1ccccn1,inactive: -7.99%
15,COc1ccc(-n2nc3c(N4CCC(C(=O)N5CCC(C)CC5)CC4)nnc(C)c3c2C)cc1,inactive: -33.5%
16,C#CCOCCOCCOCCNc1nc(N2CCN(C(=O)[C@H](Cc3cc4ccccc4[nH]3)n3cc(C(N)CC(C)C)nn3)CC2)nc(N2CCN(C(=O)[C@H](CCC(=O)O)n3cc(C(N)[C@H](C)CC)nn3)CC2)n1 (stereo partly drawn),inactive: -2.42%
17,Cc1cc(=O)[nH]c(-n2ncc(C#N)c2N)n1,inactive: -2.13%
18,Cc1ccc(C(=O)/C=C/c2cc(Br)cc(Br)c2O)o1,inactive: 2.94%
19,CCOC(=O)CC1C(=O)NCCN1S(=O)(=O)c1cc(Cl)c(Cl)cc1Cl (stereo not drawn),inactive: 9.36%
20,O=S(=O)(Nc1cc2nc3ccccc3nc2n1Cc1ccccc1)c1ccc(Cl)cc1,inactive: -76.8%
21,COC(=O)c1cccc(C(=O)N2CCCC(C(=O)c3ccccc3OC)C2)c1 (stereo not drawn),inactive: -0.71%
22,CCCCNc1c2c3c(cccc3n(C)c1=O)C(=O)c1ccccc1-2,inactive: -25.9%

row,Structure (SMILES),activation
1,Cc1ccc(N2C(=O)C3CC(c4ccccc4)=C4C5C=CC(C6C(=O)N(c7ccc(C)cc7C)C(=O)C56)C4C3C2=O)c(C)c1 (stereo not drawn),inactive: -8.02%
2,Cc1ccc(S(=O)(=O)c2c(N)n(-c3ccccc3)c3nc4ccccc4nc23)cc1,inactive: 8.69%
3,CCOC(=O)C(C)(C)N(Cc1ccc(C)cc1)S(=O)(=O)c1ccc(Cl)c([N+](=O)[O-])c1,inactive: -87.3%
4,NC(=O)COc1ccccc1,inactive: -6.51%
5,Cn1cnc([N+](=O)[O-])c1S(=O)(=O)c1ccc(Cl)cc1,inactive: -3.41% [at 6 µM]
6,O=[N+]([O-])c1cccc(-c2ncc3ccccn23)c1,inactive: -2.6%
7,COc1ccc(/C=C/C(=O)C23CC4CC(CC(C4)C2)C3)cc1CN1CCOCC1,inactive: 16.2%
8,O=C(NC1CCCN(Cc2ccccc2F)C1)c1cccs1 (stereo not drawn),inactive: -6.74%
9,O=C(CSC1=NCCN1)Nc1cccc(C(F)(F)F)c1,inactive: -21.6%
10,CCOC(=O)C1=C(C)N=c2s/c(=C\C(=O)OC)c(=O)n2C1c1ccc(OC)cc1 (stereo not drawn),inactive: 2.15%
11,Cc1ccc(C(C)(O)CS(=O)(=O)Cc2ccccc2Cl)cc1 (stereo not drawn),inactive: 3.42%
12,CC1CC(C)CN(C(=O)CCS(=O)(=O)c2ccc3c(c2)NC(=O)CS3)C1 (stereo not drawn),inactive: -22.2%
13,Cn1c(=O)c2c(nc(N/N=C/c3ccc(OC(=O)c4ccco4)cc3)n2Cc2ccc(F)cc2)n(C)c1=O,inactive: -42%
14,COc1cc(-c2nc(-c3ccc4c(c3)-c3ccccc3S4(=O)=O)c(-c3ccccc3)[nH]2)cc(OC)c1O,inactive: -40.3%
15,O=C(COc1ccc(Cl)cc1)Nc1ncc([N+](=O)[O-])s1,inactive: -82.4%
16,CCN(CC)CCCn1c(=S)[nH]c2ncccc2c1=O,inactive: -3.45%
17,CCN(c1ccccc1)S(=O)(=O)c1cc(NC(=O)Nc2ccccc2C#N)ccc1Cl,inactive: -22.2%
18,COc1ccc(NC(=O)CCc2nnc3ccc(NCc4ccc5c(c4)OCO5)nn23)cc1,inactive: -9.09%
19,CS(=O)(=O)c1ccc(Cl)c(C(=O)NCC2CCCCC2)c1,inactive: 2.34%
20,Cc1ccccc1NC(=O)C(=Cc1ccc(C(=O)O)cc1)C(=O)Nc1ccccc1C,inactive: -62.7%
21,CCC(CO)NCC#Cc1ccccc1 (stereo not drawn),inactive: -4.67%
22,Cc1ccc(C(=O)O/N=C(\N)Cc2cccc3ccccc23)cc1,inactive: -24.1%
